Test results reported in US11638764B2, “Theranostic capture agents, compositions, and methods of using and making” (Indi Molecular, Inc., priority 2018, dated 2023).
At least one compound was matched to its structure with a doubt left. Bridge positions count the residues as written; N and C are the ends. Square brackets hold non-standard residues; d marks the D form. Triazole bridges read from a SMILES are 1,4-linked. Peptide text beside a SMILES is read from it. Lys(N3) = [N-]=[N+]=NCCCC[C@H](N)C(=O)O; Pra = C#CC[C@H](N)C(=O)O

By UniProt entry, the sequences of proteins in these tests, tags left out.
UniProt Q04609, whole entry: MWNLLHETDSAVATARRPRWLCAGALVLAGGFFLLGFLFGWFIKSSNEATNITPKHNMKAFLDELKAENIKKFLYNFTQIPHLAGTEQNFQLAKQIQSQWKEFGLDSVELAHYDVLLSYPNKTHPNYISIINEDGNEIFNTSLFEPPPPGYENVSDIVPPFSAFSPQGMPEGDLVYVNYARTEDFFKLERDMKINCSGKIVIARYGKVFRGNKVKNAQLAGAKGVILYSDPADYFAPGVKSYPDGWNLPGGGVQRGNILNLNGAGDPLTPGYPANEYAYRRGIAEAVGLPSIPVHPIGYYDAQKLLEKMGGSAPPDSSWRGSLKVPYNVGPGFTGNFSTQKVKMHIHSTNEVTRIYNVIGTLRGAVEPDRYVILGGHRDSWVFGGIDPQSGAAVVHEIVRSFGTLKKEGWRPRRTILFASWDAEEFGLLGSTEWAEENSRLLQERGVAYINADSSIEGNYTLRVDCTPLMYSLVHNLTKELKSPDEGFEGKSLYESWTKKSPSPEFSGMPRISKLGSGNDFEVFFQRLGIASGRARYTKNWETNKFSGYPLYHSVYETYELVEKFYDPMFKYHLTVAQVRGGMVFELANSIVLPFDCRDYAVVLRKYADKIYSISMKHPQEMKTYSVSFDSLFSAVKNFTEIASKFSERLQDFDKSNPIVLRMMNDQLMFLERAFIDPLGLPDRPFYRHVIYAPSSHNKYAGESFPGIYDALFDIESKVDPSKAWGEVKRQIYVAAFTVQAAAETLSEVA

Target: recombinant PSMA (Homo sapiens, UniProt Q04609)
Assay: ELISA against recombinant PSMA protein
Conditions: read-out: EC50 of binding to recombinant PSMA by ELISA
Description: Hits resulting from the epitope 2 screen were also profiled by ELISA and flow.
Hits resulting from the epitope 3 screen were scaled up and subjected to ELISA and flow experiments.
Hits resulting from the epitope 4 screen were also profiled in ELISA and flow cytometry.
To increase the throughput of the screening step, three epitopes were mixed and screened against the pre-cleared library. PSMA epitopes 2C, 6, and 7 were mixed and picked by either an ImmPACT Vector Red or BCIP/NBT dye (FIG. 11). The ImmPACT Vector Red screen identified the hit peptide ehtye (SEQ ID NO:22). […] Further epitope selectivity can be deconvoluted via a single epitope orientation assay.

Compound	EC50
CC(=O)N[C@H]1Cc2cn(nn2)CCCC[C@@H](C(N)=O)NC(=O)CNC(=O)[C@@H](CC(C)C)NC(=O)[C@@H](Cc2c[nH]c3ccccc23)NC(=O)[C@@H](CC(N)=O)NC(=O)[C@@H](Cc2c[nH]cn2)NC1=O [hnwlG] (Ac-[Pra][dH][dN][dW][dL]G[Lys(N3)]-NH2; triazole 1-7; N-terminus and C-terminus assumed)	5590 nM
CC(=O)N[C@H]1Cc2cn(nn2)CCCC[C@@H](C(N)=O)NC(=O)[C@@H](Cc2c[nH]cn2)NC(=O)[C@@H](Cc2c[nH]cn2)NC(=O)[C@@H](CCCCN)NC(=O)[C@@H](Cc2ccccc2)NC(=O)[C@@H](CC(C)C)NC1=O [lfkhh] (Ac-[Pra][dL][dF][dK][dH][dH][Lys(N3)]-NH2; triazole 1-7; N-terminus and C-terminus assumed)	8.6 nM
